Results taken from PubChem BioAssay AID1671190 (National Center for Advancing Translational Sciences (NCATS), 2021).
Only a part is listed here, and it is no random draw. Results filed as inconclusive are left out. Calls of active or inactive are those of the source. The call rests on the fitted dose curve; in most records, active means well fitted inhibition curve with a large enough effect; inconclusive means small, poorly fitted or top-dose-only effect, or another doubt; inactive means no such curve, though single readings can be large or run the other way.

The chains behind the UniProt entries cited, without tags or fusion partners. Where a name states a change or a piece, a line headed by the entry shows the natural chain unless it says otherwise.
UniProt P18054: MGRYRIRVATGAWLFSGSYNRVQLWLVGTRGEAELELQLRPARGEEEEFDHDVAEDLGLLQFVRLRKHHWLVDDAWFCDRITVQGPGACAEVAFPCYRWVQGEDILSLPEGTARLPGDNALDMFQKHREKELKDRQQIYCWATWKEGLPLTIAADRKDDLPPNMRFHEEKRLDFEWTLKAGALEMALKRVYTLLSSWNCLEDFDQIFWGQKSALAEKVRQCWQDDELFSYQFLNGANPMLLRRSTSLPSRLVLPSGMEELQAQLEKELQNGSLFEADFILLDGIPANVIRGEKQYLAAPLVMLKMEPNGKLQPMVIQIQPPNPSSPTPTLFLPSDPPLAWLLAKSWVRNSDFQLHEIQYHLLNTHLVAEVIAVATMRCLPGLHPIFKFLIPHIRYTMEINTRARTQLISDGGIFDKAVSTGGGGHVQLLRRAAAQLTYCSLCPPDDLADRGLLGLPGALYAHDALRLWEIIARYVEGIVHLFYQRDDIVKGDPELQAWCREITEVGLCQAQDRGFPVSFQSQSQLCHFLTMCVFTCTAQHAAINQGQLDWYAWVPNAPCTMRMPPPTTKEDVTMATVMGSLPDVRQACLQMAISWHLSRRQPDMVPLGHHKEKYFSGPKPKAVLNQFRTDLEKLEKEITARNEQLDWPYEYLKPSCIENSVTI

Molecular target: Polyunsaturated fatty acid lipoxygenase ALOX12 (Homo sapiens) (UniProt P18054)
Experiment: Primary qHTS assay for inhibitors of human arachidonate 12S-lipoxygenase (ALOX12): Round 2
Settings: purified 12hLO, xylenol orange hydroperoxide absorbance
Description: Assay Provider: Theodore R. Holman Ph.D. University of California, Santa Cruz, California Human lipoxygenase 12hLO is a member of the closely related lipoxygenase family of enzymes which catalyze the site-specific oxidation of arachidonic acid to various hormone precursor molecules and as such is a candidate for drug development in a variety of disease areas, such as cancer and inflammation. Inhibition of 12hLO activity was screened by utilizing arachidonic acid as a substrate. The extent of hydroperoxide product formation was measured by a secondary chromogenic reaction in which xylenol orange (XO, Sigma-Aldrich, cat. number 39,818-7) reacts with the ferric ions produced from the reaction between the hydroperoxide and ferrous ions. The Fe (III)-XO complex is characterized with red-shifted absorbance at 560 nm. A purified preparation of human 12hLO was supplied by Dr. Holman laboratory, University of California, Santa Cruz.
PROTOCOL TABLE SEQUENCE No. (e.g., 1, 2, 3, etc.); […] (e.g., Cells, Incubation, Reagent, etc.); VALUE; DESCRIPTION 1; Enzyme; 3 uL; 150 nM 12hLO enzyme solution dispensed in 1536-well Greiner black, clear bottom plates. 2; Compound; 23 nL; compounds and controls were added. 3; Incubate; 15 min; room temperature. 4; Substrate; 1 uL; 40 uM arachidonic acid (final concentration). 5; Incubate; 30 min; room temperature. 6; Reagent; 4 uL; Fe-XO solution was added to each well. 7; Incubation; 30 min; room temperature 8; Detector; absorbance; Read 1 at 405 nm absorbance using ViewLux (Perkin-Elmer) CCD imager. 9; Detector; absorbance; Read 2 at 573 nm absorbance using ViewLux (Perkin-Elmer) CCD imager. NOTES (numbers refer to sequence above) 1; 150 nM 12hLO (final concentration) in buffer solution (25 mM Hepes, 0.01% Triton X-100, pH 7.0) was dispensed in columns 1, 2, 5-48. Column 1 is neutral (100% activity). Buffer only was dispensed in columns 3 and 4 as no enzyme negative controls. The plates were covered with metal lids with gas-exchange holes. 2; Compounds were pin transferred via a Kalypsys Pin Tool (Wako USA) in column 5-48. Control compound was transferred in column 2, titration of nordihydroguaiaretic acid (NDGA, Sigma-Aldrich, N5023) with top concentration of 20 mM in DMSO then 1:3 dilution in duplicate. Dilution factor of 23 nL into 4 uL final assay volume. 3; Covered assay plates were incubated for 15 min at room temperature. 4; Substrate was added to start the reaction; 40 uM arachidonic acid (Sigma-Aldrich, St. Louis, MO) was dispensed throughout the plate. […] 8, 9; Two absorbance readouts were obtained at 405 nm and at 573 nm using a ViewLux high-throughput CCD plate imager (Perkin-Elmer). The 573 to 405 (Read 2 / Read 1) absorbance ratio was used to compute reaction progress.
Potency means the concentration at half of the fitted maximal effect.

Potency, active:
C/C(CC1CC2=C(CC1(C)C)C(C)(C)CCC2)=N\NC(N)=S (centres undefined) 15.8 µM
C=CCn1c(=S)[nH]c2scc(-c3ccco3)c2c1=O 39.8 µM
CCc1ccc(-n2cccc2/C=C2/C(=N)N3C(=NC2=O)SN=C3S(C)(=O)=O)cc1 50.1 µM
O=C1CSc2cc(Cl)ccc2N1 35.5 µM
